# Assay results as given in the supplement of paper PMC8728848.
# The list shows a part of the results.
# B1: RbmA (Vibrio cholerae), A0A2H4NFB8 (protein)
# chain: MSNFKGSIMNKRHYYLASCLALLFSTASYAEVDCELQPVIEANLSLNQNQLASNGGYISSQLGIRNESCETVKFKYWLSIKGPEGIYFPAKAVVGVDTAQQESDALTDGRMLNVTRGFWVPEYMADGKYTVSLQVVAENGEVFKANQEFVKGGDLNSLPELNGLTIDIKNQFGINSVESTGGFVPFTIDLNNGREGEAKVEFWMTAVGPDGLIIPVHSREKWMIIAGNTFSKVRGINFDKSYPAGEYTINAQVVDIVSGERVEQLMTVVKK
# Assays:
# Experiment in all cases: glycan array binding signal (z-score within array); higher = stronger binding
# Settings in all cases: glycan notation: IUPAC condensed, linker removed
# [1] = biological target: Fuc(a1-3)[Gal3S(b1-4)]GlcNAc6S
# Outline: (§1)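 Glycan array data were curated from 3228 arrays in the Consortium for Functional Glycomics database and kept only where the protein sequence was available. Glycan names were converted to IUPAC-condensed notation, and columns mapping to the same glycan were averaged. The binding signal is a within-array Z-score, averaged across arrays of the same protein sequence at different concentrations or buffers and across linkers. Negative Z-scores can be read as non-binding.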
# [2] = biological target: Fuc(a1-3)[GalNAc(b1-4)]GlcNAc
# Outline: as §1
# [3] = biological target: Fuc(a1-3)[GalNAc(b1-4)]GlcNAc6S
# Outline: as §1
# Fuc(a1-4)GlcNAc = biological target: Fuc(a1-4)GlcNAc
# Outline: as §1
# Fuc(b1-3)GlcNAc = biological target: Fuc(b1-3)GlcNAc
# Outline: as §1
# Gal(a1-2)Gal = biological target: Gal(a1-2)Gal
# Outline: as §1
# Gal(a1-3)Gal = biological target: Gal(a1-3)Gal
# Outline: as §1
# Gal(a1-3)Gal(b1-3)GlcNAc = biological target: Gal(a1-3)Gal(b1-3)GlcNAc
# Outline: as §1
# [4] = biological target: Gal(a1-3)Gal(b1-3)GlcNAc(b1-2)Man
# Outline: as §1
# [5] = biological target: Gal(a1-3)Gal(b1-3)GlcNAc(b1-2)Man(a1-3)[Gal(a1-3)Gal(b1-3)GlcNAc(b1-2)Man(a1-6)]Man(b1-4)GlcNAc(b1-4)GlcNAc
# Outline: as §1
# [6] = biological target: Gal(a1-3)Gal(b1-3)GlcNAc(b1-3)GalNAc
# Outline: as §1
# [7] = biological target: Gal(a1-3)Gal(b1-3)GlcNAc(b1-6)GalNAc
# Outline: as §1
# [8] = biological target: Gal(a1-3)Gal(b1-3)[Fuc(a1-4)]GlcNAc(b1-2)Man(a1-3)[Gal(a1-3)Gal(b1-3)[Fuc(a1-4)]GlcNAc(b1-2)Man(a1-6)]Man(b1-4)GlcNAc(b1-4)GlcNAc
# Outline: as §1
# Gal(a1-3)Gal(b1-4)Glc = biological target: Gal(a1-3)Gal(b1-4)Glc
# Outline: as §1
# Gal(a1-3)Gal(b1-4)GlcNAc = biological target: Gal(a1-3)Gal(b1-4)GlcNAc
# Outline: as §1
# [9] = biological target: Gal(a1-3)Gal(b1-4)GlcNAc(b1-2)Man
# Outline: as §1
# [10] = biological target: Gal(a1-3)Gal(b1-4)GlcNAc(b1-2)Man(a1-3)[Gal(a1-3)Gal(b1-4)GlcNAc(b1-2)Man(a1-6)]Man(b1-4)GlcNAc(b1-4)GlcNAc
# Outline: as §1
# [11] = biological target: Gal(a1-3)Gal(b1-4)GlcNAc(b1-3)GalNAc
# Outline: as §1
# [12] = biological target: Gal(a1-3)Gal(b1-4)GlcNAc(b1-6)GalNAc
# Outline: as §1
# [13] = biological target: Gal(a1-3)Gal(b1-4)[Fuc(a1-3)]GlcNAc
# Outline: as §1
# [14] = biological target: Gal(a1-3)Gal(b1-4)[Fuc(a1-3)]GlcNAc(b1-2)Man(a1-3)[Gal(a1-3)Gal(b1-4)[Fuc(a1-3)]GlcNAc(b1-2)Man(a1-6)]Man(b1-4)GlcNAc(b1-4)GlcNAc
# Outline: as §1
# Gal(a1-3)GalNAc = biological target: Gal(a1-3)GalNAc
# Outline: as §1
# [15] = biological target: Gal(a1-3)[Gal(a1-4)]Gal(b1-4)GlcNAc
# Outline: as §1
# [16] = biological target: Gal(a1-4)Gal(b1-3)GlcNAc(b1-2)Man(a1-3)[Gal(a1-4)Gal(b1-3)GlcNAc(b1-2)Man(a1-6)]Man(b1-4)GlcNAc(b1-4)GlcNAc
# Outline: as §1
# Gal(a1-4)Gal(b1-4)Glc = biological target: Gal(a1-4)Gal(b1-4)Glc
# Outline: as §1
# Gal(a1-4)Gal(b1-4)GlcNAc = biological target: Gal(a1-4)Gal(b1-4)GlcNAc
# Outline: as §1
# [17] = biological target: Gal(a1-4)Gal(b1-4)GlcNAc(b1-2)Man(a1-3)[Gal(a1-4)Gal(b1-4)GlcNAc(b1-2)Man(a1-6)]Man(b1-4)GlcNAc(b1-4)GlcNAc
# Outline: as §1
# [18] = biological target: Gal(a1-4)Gal(b1-4)GlcNAc(b1-3)Gal(b1-4)Glc
# Outline: as §1
# Gal(a1-4)GlcNAc = biological target: Gal(a1-4)GlcNAc
# Outline: as §1
# Gal(a1-6)Glc = biological target: Gal(a1-6)Glc
# Outline: as §1
# Gal(b1-2)Gal = biological target: Gal(b1-2)Gal
# Outline: as §1
# Gal(b1-3)Gal = biological target: Gal(b1-3)Gal
# Outline: as §1
# Gal(b1-3)Gal(b1-4)GlcNAc = biological target: Gal(b1-3)Gal(b1-4)GlcNAc
# Outline: as §1
# Gal(b1-3)GalNAc = biological target: Gal(b1-3)GalNAc
# Outline: as §1
# [19] = biological target: Gal(b1-3)GalNAc(a1-3)[Fuc(a1-2)]Gal(b1-4)Glc
# Outline: as §1
# [20] = biological target: Gal(b1-3)GalNAc(a1-3)[Fuc(a1-2)]Gal(b1-4)GlcNAc
# Outline: as §1
# Gal(b1-3)GalNAc(b1-3)Gal = biological target: Gal(b1-3)GalNAc(b1-3)Gal
# Outline: as §1
binder,measurement,setting,value
B1,glycan array binding signal (z-score),[1],1.34
same,glycan array binding signal (z-score),[2],-0.002
same,glycan array binding signal (z-score),[3],-0.596
same,glycan array binding signal (z-score),Fuc(a1-4)GlcNAc,-0.613
same,glycan array binding signal (z-score),Fuc(b1-3)GlcNAc,1.3
same,glycan array binding signal (z-score),Gal(a1-2)Gal,-0.14
same,glycan array binding signal (z-score),Gal(a1-3)Gal,0.011
same,glycan array binding signal (z-score),Gal(a1-3)Gal(b1-3)GlcNAc,-0.059
same,glycan array binding signal (z-score),[4],-0.943
same,glycan array binding signal (z-score),[5],-0.418
same,glycan array binding signal (z-score),[6],-1.22
same,glycan array binding signal (z-score),[7],0.54
same,glycan array binding signal (z-score),[8],-0.276
same,glycan array binding signal (z-score),Gal(a1-3)Gal(b1-4)Glc,-0.199
same,glycan array binding signal (z-score),Gal(a1-3)Gal(b1-4)GlcNAc,0.237
same,glycan array binding signal (z-score),[9],-0.612
same,glycan array binding signal (z-score),[10],0.672
same,glycan array binding signal (z-score),[11],-0.556
same,glycan array binding signal (z-score),[12],-0.338
same,glycan array binding signal (z-score),[13],-0.766
same,glycan array binding signal (z-score),[14],0.837
same,glycan array binding signal (z-score),Gal(a1-3)GalNAc,-0.761
same,glycan array binding signal (z-score),[15],2.5
same,glycan array binding signal (z-score),[16],0.508
same,glycan array binding signal (z-score),Gal(a1-4)Gal(b1-4)Glc,-0.37
same,glycan array binding signal (z-score),Gal(a1-4)Gal(b1-4)GlcNAc,0.219
same,glycan array binding signal (z-score),[17],-0.702
same,glycan array binding signal (z-score),[18],0.028
same,glycan array binding signal (z-score),Gal(a1-4)GlcNAc,0.47
same,glycan array binding signal (z-score),Gal(a1-6)Glc,1.13
same,glycan array binding signal (z-score),Gal(b1-2)Gal,-0.082
same,glycan array binding signal (z-score),Gal(b1-3)Gal,-0.26
same,glycan array binding signal (z-score),Gal(b1-3)Gal(b1-4)GlcNAc,-0.265
same,glycan array binding signal (z-score),Gal(b1-3)GalNAc,-1.04
same,glycan array binding signal (z-score),[19],0.144
same,glycan array binding signal (z-score),[20],-0.973
same,glycan array binding signal (z-score),Gal(b1-3)GalNAc(b1-3)Gal,-0.362

# Three successive entries from above, quoted:
binder,measurement,setting,value
B1,glycan array binding signal (z-score),Gal(a1-4)GlcNAc,0.47
same,glycan array binding signal (z-score),Gal(a1-6)Glc,1.13
same,glycan array binding signal (z-score),Gal(b1-2)Gal,-0.082
